We go through four sequences from article PMC9331318.

The exact form of at least one protein or probe is not confirmed.

Data set [1] concerns BcWRKY33A. The experiment in a line: competition with a labelled probe. Conditions: 6% native gel, TGE buffer, pH and temperature not stated, recombinant protein.
The subject of data set [2] is BcWRKY33A. Put plainly: EMSA. The following applies: Beyotime GS009 chemiluminescent EMSA kit, 6% native gel, TGE buffer, pH and temperature not stated, recombinant protein, label: biotin.

Turning to “AGAAAATTCAACGGAGAAAATTCAACGGAGAAAATTCAACGG (double strand) [Competitor 2]”, the binding result in the data set with BcWRKY33A [1] (unlabeled competitor vs Probe 2, Beyotime GS009 chemiluminescent EMSA kit) is “binds”.

As to “AGAAAATTCAACGGAGAAAATTCAACGGAGAAAATTCAACGG (double strand) [Probe 2 (pBcMYB51-3 W-box)]”, the binding result in the data set on BcWRKY33A [2] is listed as “binds”.

On to “ATGTTGACTAGTTATGTTGACTAGTT (double strand) [Competitor 1]”, for which the binding result in the data set on BcWRKY33A [1] (unlabeled competitor vs Probe 1, Beyotime GS009 chemiluminescent EMSA kit) is given as “binds”. Turning to “ATGTTGACTAGTTATGTTGACTAGTT (double strand) [Probe 1 (pBcMYB51-3 W-box)]”, the binding result in the data set with BcWRKY33A [2] is “binds”.
